Some of the results follow.
How the values were obtained:
Experiment in all cases: log2 fold change, soluble protein after heating vs DMSO (PISA); higher = thermal stabilisation; K562 cells, 10 uM, 30 min; active = over 0.2 and 3.5 SD of the protein, either way, in both replicates (recomputed)
[1] = compound: CC[C@@H]1C(=O)N(C)c2cnc(Nc3ccc(C(=O)NC4CCN(C)CC4)cc3OC)nc2N1C1CCCC1
Method in brief: (§1)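 Aliquots of K562 cells (2×10^6 cells/mL) treated with 10 μM compound for 30 min were heated for 3 min over 48°C-58°C. After pooling and extraction in PBS with 0.5% NP-40 at 4°C, soluble protein from a 21,000xg, 90 min spin was quantified by TMTpro 16plex LC-MS/MS with channel sums equalised. Thermal stability is expressed against control samples, from duplicates, as a log2 fold change.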

Chains of the proteins cited; added tags and fusions are not shown. Lines headed by an entry give the natural chain unless they say otherwise; changes in a name come on top.
UniProt Q9Y6Y0: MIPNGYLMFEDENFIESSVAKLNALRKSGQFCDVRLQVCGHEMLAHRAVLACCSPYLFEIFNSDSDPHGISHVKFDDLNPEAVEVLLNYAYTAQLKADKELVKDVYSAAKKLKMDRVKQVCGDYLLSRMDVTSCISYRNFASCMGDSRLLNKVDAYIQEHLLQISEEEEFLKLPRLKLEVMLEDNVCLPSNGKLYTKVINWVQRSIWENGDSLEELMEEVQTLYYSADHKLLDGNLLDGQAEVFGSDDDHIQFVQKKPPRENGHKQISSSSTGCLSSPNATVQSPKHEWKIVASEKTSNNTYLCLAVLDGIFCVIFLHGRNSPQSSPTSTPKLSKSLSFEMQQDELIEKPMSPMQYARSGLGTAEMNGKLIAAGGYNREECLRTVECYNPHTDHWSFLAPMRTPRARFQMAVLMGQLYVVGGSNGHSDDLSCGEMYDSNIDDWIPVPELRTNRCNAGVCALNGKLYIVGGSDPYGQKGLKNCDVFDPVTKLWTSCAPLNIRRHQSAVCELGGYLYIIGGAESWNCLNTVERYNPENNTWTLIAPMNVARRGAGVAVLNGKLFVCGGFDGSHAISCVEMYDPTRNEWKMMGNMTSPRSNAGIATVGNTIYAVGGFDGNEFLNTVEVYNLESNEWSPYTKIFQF
UniProt Q674X7: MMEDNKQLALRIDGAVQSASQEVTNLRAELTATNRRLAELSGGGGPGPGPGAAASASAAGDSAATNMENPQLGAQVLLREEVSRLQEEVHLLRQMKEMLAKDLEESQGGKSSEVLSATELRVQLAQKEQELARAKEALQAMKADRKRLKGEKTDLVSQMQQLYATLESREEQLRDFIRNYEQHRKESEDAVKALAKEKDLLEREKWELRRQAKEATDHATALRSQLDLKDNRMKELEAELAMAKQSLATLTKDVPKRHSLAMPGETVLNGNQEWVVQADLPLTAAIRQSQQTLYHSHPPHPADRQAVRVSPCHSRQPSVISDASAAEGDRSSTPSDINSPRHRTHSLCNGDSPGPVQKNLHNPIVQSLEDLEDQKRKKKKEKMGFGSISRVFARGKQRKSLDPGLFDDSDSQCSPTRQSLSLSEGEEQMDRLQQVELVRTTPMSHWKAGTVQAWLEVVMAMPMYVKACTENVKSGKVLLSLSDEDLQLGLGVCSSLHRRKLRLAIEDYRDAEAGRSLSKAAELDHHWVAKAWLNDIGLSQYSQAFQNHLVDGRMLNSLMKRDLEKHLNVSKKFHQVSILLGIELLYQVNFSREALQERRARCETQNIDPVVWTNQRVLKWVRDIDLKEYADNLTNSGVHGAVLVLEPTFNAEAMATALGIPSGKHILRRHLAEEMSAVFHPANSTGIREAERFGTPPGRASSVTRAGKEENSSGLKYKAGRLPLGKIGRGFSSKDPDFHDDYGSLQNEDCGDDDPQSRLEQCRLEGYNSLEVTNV
UniProt P50053: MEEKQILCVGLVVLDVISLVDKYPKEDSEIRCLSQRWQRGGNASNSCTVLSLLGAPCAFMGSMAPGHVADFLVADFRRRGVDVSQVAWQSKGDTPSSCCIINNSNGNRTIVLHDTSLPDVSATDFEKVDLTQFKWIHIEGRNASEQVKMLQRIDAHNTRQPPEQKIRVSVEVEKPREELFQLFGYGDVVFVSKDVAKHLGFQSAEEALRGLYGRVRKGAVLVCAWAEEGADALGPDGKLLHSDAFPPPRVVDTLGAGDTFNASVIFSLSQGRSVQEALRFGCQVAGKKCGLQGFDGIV
UniProt Q92945: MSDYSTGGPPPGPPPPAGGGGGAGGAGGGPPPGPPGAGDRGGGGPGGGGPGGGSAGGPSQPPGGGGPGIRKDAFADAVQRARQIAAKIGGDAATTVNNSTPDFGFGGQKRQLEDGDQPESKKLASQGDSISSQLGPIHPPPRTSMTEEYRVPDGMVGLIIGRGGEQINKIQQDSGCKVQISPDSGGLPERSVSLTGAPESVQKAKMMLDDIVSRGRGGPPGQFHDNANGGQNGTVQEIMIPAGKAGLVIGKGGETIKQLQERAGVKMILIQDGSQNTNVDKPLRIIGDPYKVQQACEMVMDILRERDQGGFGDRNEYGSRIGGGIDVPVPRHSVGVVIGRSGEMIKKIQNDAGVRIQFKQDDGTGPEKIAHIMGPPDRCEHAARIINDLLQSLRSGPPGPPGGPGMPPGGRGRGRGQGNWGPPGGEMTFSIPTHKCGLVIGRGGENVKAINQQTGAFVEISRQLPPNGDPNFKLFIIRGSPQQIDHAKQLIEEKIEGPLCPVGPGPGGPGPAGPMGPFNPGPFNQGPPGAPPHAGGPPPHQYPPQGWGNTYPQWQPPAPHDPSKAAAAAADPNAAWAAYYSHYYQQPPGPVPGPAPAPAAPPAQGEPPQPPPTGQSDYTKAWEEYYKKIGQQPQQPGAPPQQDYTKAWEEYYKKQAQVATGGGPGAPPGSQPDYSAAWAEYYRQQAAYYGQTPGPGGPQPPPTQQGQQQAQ
UniProt P41229: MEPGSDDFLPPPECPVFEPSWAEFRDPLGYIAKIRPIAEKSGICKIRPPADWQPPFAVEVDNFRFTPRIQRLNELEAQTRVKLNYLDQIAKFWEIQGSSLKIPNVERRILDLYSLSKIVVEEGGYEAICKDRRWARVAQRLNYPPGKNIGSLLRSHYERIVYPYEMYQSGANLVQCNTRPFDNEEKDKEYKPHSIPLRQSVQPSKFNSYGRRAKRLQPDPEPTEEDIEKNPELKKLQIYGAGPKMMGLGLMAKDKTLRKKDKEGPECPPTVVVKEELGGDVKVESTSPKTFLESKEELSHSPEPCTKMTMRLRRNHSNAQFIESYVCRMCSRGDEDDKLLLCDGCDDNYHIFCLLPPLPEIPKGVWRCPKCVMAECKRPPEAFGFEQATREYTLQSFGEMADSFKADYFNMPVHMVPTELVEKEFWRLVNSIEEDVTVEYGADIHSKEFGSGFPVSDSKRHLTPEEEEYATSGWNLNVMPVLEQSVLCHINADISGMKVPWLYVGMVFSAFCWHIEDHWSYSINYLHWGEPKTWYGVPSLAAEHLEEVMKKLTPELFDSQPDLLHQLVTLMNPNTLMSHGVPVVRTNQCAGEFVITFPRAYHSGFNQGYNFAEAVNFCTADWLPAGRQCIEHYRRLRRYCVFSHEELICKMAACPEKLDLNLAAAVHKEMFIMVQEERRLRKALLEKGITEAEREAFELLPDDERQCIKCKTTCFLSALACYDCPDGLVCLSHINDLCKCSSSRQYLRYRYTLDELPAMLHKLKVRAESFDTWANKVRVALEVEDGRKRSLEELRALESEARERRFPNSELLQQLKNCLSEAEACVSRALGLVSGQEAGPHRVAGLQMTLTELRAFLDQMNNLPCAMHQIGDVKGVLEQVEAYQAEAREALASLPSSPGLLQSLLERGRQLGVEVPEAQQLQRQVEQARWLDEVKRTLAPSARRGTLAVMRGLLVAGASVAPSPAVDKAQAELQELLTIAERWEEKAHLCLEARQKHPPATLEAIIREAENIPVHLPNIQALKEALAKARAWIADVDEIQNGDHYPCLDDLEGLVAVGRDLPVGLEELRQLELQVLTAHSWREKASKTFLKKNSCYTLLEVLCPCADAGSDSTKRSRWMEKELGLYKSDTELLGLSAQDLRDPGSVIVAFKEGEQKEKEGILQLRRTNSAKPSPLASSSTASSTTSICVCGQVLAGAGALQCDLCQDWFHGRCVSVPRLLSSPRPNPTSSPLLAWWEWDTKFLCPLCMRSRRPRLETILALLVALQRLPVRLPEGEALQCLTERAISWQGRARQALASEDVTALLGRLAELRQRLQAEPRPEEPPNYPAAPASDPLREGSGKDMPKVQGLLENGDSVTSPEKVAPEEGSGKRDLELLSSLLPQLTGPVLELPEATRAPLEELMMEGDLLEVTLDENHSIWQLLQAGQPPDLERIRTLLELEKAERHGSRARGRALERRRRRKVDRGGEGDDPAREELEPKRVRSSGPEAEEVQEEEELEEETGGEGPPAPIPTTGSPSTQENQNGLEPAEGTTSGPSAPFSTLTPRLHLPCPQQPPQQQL
UniProt Q9H910: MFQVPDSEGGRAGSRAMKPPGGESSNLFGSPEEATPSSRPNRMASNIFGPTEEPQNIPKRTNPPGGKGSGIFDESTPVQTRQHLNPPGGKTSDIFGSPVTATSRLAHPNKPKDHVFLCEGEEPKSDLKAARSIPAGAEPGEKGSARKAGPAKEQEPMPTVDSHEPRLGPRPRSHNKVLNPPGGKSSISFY
UniProt Q96A73: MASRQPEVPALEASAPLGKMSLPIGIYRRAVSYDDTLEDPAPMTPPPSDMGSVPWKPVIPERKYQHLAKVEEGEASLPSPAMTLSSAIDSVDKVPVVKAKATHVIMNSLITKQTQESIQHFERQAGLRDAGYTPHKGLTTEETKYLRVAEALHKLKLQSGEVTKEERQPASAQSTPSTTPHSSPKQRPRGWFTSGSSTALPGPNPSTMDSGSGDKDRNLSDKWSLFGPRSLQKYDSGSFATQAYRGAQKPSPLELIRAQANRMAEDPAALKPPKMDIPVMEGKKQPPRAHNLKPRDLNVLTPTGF
UniProt Q9UK76: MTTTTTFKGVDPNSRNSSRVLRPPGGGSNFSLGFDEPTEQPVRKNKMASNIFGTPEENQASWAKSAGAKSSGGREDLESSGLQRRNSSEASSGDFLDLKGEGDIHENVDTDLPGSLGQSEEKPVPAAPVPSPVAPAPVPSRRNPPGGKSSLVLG
UniProt Q8IYS2: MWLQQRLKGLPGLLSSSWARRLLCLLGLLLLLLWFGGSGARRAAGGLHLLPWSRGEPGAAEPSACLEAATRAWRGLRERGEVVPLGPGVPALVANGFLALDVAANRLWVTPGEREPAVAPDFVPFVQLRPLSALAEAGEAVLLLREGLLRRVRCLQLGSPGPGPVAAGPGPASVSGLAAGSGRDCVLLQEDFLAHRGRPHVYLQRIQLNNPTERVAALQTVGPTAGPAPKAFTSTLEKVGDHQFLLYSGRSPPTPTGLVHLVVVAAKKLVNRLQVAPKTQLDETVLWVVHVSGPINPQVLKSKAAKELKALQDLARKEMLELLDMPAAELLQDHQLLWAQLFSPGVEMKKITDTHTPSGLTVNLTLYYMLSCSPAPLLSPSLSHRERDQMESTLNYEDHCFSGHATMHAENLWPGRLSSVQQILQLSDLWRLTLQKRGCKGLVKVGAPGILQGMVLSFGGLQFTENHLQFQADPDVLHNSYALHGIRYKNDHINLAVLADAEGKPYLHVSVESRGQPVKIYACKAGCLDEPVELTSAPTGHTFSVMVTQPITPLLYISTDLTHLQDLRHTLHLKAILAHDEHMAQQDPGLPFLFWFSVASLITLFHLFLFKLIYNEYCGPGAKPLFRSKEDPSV
UniProt Q96AT1: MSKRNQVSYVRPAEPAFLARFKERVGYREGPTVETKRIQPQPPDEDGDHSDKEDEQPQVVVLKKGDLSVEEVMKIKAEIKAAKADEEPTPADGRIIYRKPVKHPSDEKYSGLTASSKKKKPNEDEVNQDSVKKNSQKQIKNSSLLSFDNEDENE
UniProt P33176: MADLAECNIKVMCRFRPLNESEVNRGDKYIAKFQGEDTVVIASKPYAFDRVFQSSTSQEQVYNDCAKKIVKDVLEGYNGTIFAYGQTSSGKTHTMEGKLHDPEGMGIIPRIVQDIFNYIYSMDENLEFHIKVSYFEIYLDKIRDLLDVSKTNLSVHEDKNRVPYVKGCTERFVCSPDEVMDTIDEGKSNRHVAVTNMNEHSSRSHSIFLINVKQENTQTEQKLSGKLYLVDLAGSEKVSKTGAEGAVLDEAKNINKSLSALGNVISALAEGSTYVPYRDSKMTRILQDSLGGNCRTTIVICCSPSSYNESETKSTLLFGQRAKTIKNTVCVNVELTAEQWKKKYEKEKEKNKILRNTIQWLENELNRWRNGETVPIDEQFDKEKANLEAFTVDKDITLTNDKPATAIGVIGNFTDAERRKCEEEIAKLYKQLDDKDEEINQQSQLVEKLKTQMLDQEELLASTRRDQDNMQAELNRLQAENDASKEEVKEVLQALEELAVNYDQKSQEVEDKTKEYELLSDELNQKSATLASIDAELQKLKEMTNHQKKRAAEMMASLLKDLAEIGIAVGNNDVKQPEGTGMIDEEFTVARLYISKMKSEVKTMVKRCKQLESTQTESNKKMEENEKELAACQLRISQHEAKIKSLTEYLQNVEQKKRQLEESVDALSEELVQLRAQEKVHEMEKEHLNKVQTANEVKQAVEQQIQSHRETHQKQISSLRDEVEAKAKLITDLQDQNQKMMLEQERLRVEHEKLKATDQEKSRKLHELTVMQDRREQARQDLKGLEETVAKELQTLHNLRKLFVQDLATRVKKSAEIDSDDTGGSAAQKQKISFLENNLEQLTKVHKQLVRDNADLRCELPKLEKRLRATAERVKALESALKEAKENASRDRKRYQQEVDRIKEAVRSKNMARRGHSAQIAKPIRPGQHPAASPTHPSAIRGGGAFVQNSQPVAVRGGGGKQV

[2] = compound: CC[C@@H]1C(=O)N(C)c2cnc(Nc3ccc(C(=O)N[C@H]4CC[C@H](N5CCN(CC6CC6)CC5)CC4)cc3OC)nc2N1C(C)C [volasertib]
Method in brief: as §1

[3] = compound: CC[C@H](C)N1C=C(C2=C(C=C(C=C21)C3=CN=C(C=C3)N4CCNCC4)C(=O)NCC5=C(C=C(NC5=O)C)C)C
Method in brief: as §1

[4] = compound: CC[C@H](C)[C@@H](C(=O)N[C@@H]([C@@H](C)O)C(=O)N[C@@H](CC(C)C)C(=O)[C@]1(CO1)C)NC(=O)[C@H]([C@@H](C)CC)N(C)C(=O)C [epoxomicin]
Method in brief: as §1

[5] = compound: CCn1c(C(=O)N(C2CC2)C2CC2)cc2c3c(ncn3C)c(Nc3cc(C)n(C)n3)nc21
Method in brief: as §1

[6] = compound: CCn1cc(-c2ccnc3[nH]c(-c4cccc(CN(C)C)c4)cc23)c(-c2ccc(NC(=O)N(C)C)cc2)n1
Method in brief: as §1

[7] = compound: CN(C)CC(=O)Nc1ccc2[nH]c(=O)c3ccccc3c2c1
Method in brief: as §1

[8] = compound: CN(CCOC1=CC=C(C=C1)C[C@H]2C(=O)NC(=O)S2)C3=CC=CC=N3 (racemic) [rosiglitazone]
Method in brief: as §1

[9] = compound: CN1C2=C(C3=C1C(=O)N(N=C3)CC4=CC(=CC=C4)N)SC(=C2)S(=O)C
Method in brief: as §1

[10] = compound: CN1CCC(CNc2ccc3ncc(-c4cccc(OC(F)(F)F)c4)n3n2)CC1
Method in brief: as §1

Measured: log2 fold change

IVNS1ABP (UniProt Q9Y6Y0)
inactive: [1] 0.244 | [2] -0.09 | [3] 0.007 | [4] 0.04 | [5] 0.044 | [6] 0.022 | [7] 0.068 | [8] -0.17 | [9] 0.069 | [10] -0.061

KMT2D isoform 3 (UniProt O14686)
inactive: [1] 0.151 | [2] -0.068 | [3] 0.024 | [4] 0.009 | [5] -0.04 | [6] 0.029 | [7] -0.119 | [8] -0.009 | [9] 0.093 | [10] 0.007

KLC4 isoform 3 (UniProt Q9NSK0)
inactive: [1] -0.009 | [2] -0.035 | [3] 0.024 | [4] 0.113 | [5] -0.085 | [6] -0.039 | [7] -0.01 | [8] -0.006 | [9] 0.003 | [10] -0.066

KAZN isoform 3 (UniProt Q674X7)
inactive: [1] 0.051 | [2] 0.061 | [3] 0.03 | [4] 0.013 | [5] -0.07 | [6] 0.003 | [7] 0.003 | [8] -0.057 | [9] 0.007 | [10] 0.017

KHK isoform 2 (UniProt P50053)
inactive: [1] -0.026 | [2] 0.021 | [3] -0.027 | [4] 0.001 | [5] -0.028 | [6] -0.027 | [7] -0.055 | [8] -0.052 | [9] 0.002 | [10] -0.092

KHSRP (UniProt Q92945)
inactive: [1] -0.035 | [2] 0.084 | [3] -0.038 | [4] -0.034 | [5] 0.03 | [6] 0.038 | [7] -0.028 | [8] 0 | [9] -0.045 | [10] 0.02

KDM2A (UniProt Q9Y2K7)
inactive: [1] -0.145 | [2] -0.167 | [3] -0.153 | [4] -0.098 | [5] -0.058 | [6] 0 | [7] -0.069 | [8] -0.004 | [9] 0.028 | [10] -0.089

KDM5C (UniProt P41229)
inactive: [1] -0.048 | [2] -0.332 | [3] 0.25 | [4] 0.075 | [5] 0 | [6] -0.041 | [7] 0.018 | [8] 0.005 | [9] -0.044 | [10] -0.197

KIF5A (UniProt Q12840)
inactive: [1] -0.006 | [2] 0.026 | [3] 0.021 | [4] 0.009 | [5] -0.02 | [6] -0.046 | [7] -0.006 | [8] 0.035 | [9] -0.041 | [10] 0.013

JPT2 isoform 3 (UniProt Q9H910)
inactive: [1] -0.008 | [2] 0.112 | [3] -0.029 | [4] 0.014 | [5] 0.048 | [6] 0.042 | [7] -0.053 | [8] -0.012 | [9] -0.039 | [10] -0.037

KIAA1191 (UniProt Q96A73)
inactive: [1] -0.017 | [2] -0.075 | [3] -0.004 | [4] -0.067 | [5] -0.04 | [6] 0.03 | [7] -0.005 | [8] -0.006 | [9] -0.019 | [10] -0.039

KDSR (UniProt Q06136)
inactive: [1] 0.045 | [2] 0.055 | [3] -0.054 | [4] 0.041 | [5] 0.002 | [6] -0.008 | [7] -0.005 | [8] 0.016 | [9] -0.003 | [10] 0.127

KLHDC3 (UniProt Q9BQ90)
inactive: [1] -0.002 | [2] -0.05 | [3] -0.019 | [4] -0.091 | [5] -0.133 | [6] 0.078 | [7] 0.051 | [8] 0.047 | [9] -0.078 | [10] 0.228

JMJD1C (UniProt Q15652)
inactive: [1] -0.125 | [2] -0.217 | [3] 0.003 | [4] 0.069 | [5] -0.074 | [6] -0.124 | [7] 0.065 | [8] 0.05 | [9] 0.009 | [10] -0.09

KIF2A isoform 4 (UniProt O00139)
inactive: [1] 0.137 | [2] 0.008 | [3] 0.031 | [4] -0.104 | [5] -0.021 | [6] 0.043 | [7] -0.04 | [8] -0.007 | [9] 0.08 | [10] 0.007

KLK10 (UniProt O43240)
inactive: [1] 0.078

KBTBD2 (UniProt Q8IY47)
inactive: [1] -0.029 | [2] -0.118 | [3] -0.031 | [4] 0.017 | [5] -0.026 | [6] -0.006 | [7] 0.006 | [8] 0.061 | [9] -0.051 | [10] -0.027

JPT1 (UniProt Q9UK76)
inactive: [1] 0.015 | [2] 0.075 | [3] -0.037 | [4] 0.072 | [5] 0.044 | [6] -0.003 | [7] -0.012 | [8] -0.009 | [9] -0.057 | [10] -0.003

KNSTRN (UniProt Q9Y448)
inactive: [1] 0.07 | [2] -0.05 | [3] -0.014 | [4] 0.011 | [5] 0.008 | [6] 0.052 | [7] -0.062 | [8] -0.014 | [9] 0.147 | [10] -0.061

KCNAB2 (UniProt Q13303)
inactive: [1] 0.084 | [2] 0.001 | [3] -0.02 | [4] -0.007 | [5] 0.018 | [6] -0.012 | [7] 0.096 | [8] 0.022 | [9] -0.094 | [10] -0.056

KCTD3 (UniProt Q9Y597)
inactive: [1] 0.05 | [2] 0.071 | [3] -0.018 | [4] 0.055 | [5] -0.028 | [6] 0.001 | [7] -0.074 | [8] -0.019 | [9] -0.023 | [10] -0.091

KIAA2013 isoform 2 (UniProt Q8IYS2)
inactive: [1] 0.112 | [2] 0.013 | [3] -0.032 | [4] 0.044 | [5] 0.063 | [6] 0.07 | [7] 0.021 | [8] 0.002 | [9] -0.091 | [10] 0.069

KIAA0319L (UniProt Q8IZA0)
inactive: [1] -0.044 | [2] -0.11 | [3] -0.039 | [4] 0.003 | [5] 0.054 | [6] 0.027 | [7] -0.016 | [8] -0.012 | [9] -0.003 | [10] -0.194

KPNA3 (UniProt O00505)
inactive: [1] -0.097 | [2] -0.204 | [3] 0.048 | [4] 0.095 | [5] 0.035 | [6] -0.104 | [7] 0.134 | [8] 0.021 | [9] -0.246 | [10] -0.094

KIAA1143 (UniProt Q96AT1)
inactive: [1] -0.006 | [2] 0.09 | [3] -0.042 | [4] -0.059 | [5] -0.004 | [6] -0.048 | [7] -0.043 | [8] -0.018 | [9] -0.019 | [10] -0.107

KIF5B (UniProt P33176)
inactive: [1] -0.006 | [2] 0.033 | [3] 0.051 | [4] 0.051 | [5] -0.008 | [6] -0.052 | [7] 0.028 | [8] 0.017 | [9] -0.046 | [10] -0.011

Taken from the entries so far (7 entries):
KNSTRN (UniProt Q9Y448)
inactive: [1] 0.07 | [2] -0.05 | [3] -0.014 | [4] 0.011 | [5] 0.008 | [6] 0.052 | [7] -0.062 | [8] -0.014 | [9] 0.147 | [10] -0.061

KCNAB2 (UniProt Q13303)
inactive: [1] 0.084 | [2] 0.001 | [3] -0.02 | [4] -0.007 | [5] 0.018 | [6] -0.012 | [7] 0.096 | [8] 0.022 | [9] -0.094 | [10] -0.056

KCTD3 (UniProt Q9Y597)
inactive: [1] 0.05 | [2] 0.071 | [3] -0.018 | [4] 0.055 | [5] -0.028 | [6] 0.001 | [7] -0.074 | [8] -0.019 | [9] -0.023 | [10] -0.091

KIAA2013 isoform 2 (UniProt Q8IYS2)
inactive: [1] 0.112 | [2] 0.013 | [3] -0.032 | [4] 0.044 | [5] 0.063 | [6] 0.07 | [7] 0.021 | [8] 0.002 | [9] -0.091 | [10] 0.069

KIAA0319L (UniProt Q8IZA0)
inactive: [1] -0.044 | [2] -0.11 | [3] -0.039 | [4] 0.003 | [5] 0.054 | [6] 0.027 | [7] -0.016 | [8] -0.012 | [9] -0.003 | [10] -0.194

KPNA3 (UniProt O00505)
inactive: [1] -0.097 | [2] -0.204 | [3] 0.048 | [4] 0.095 | [5] 0.035 | [6] -0.104 | [7] 0.134 | [8] 0.021 | [9] -0.246 | [10] -0.094

KIAA1143 (UniProt Q96AT1)
inactive: [1] -0.006 | [2] 0.09 | [3] -0.042 | [4] -0.059 | [5] -0.004 | [6] -0.048 | [7] -0.043 | [8] -0.018 | [9] -0.019 | [10] -0.107

Later entries

KDM8 isoform 3 (UniProt Q8N371)
inactive: [1] 0.004 | [2] -0.002 | [3] 0.042 | [4] 0.006 | [5] 0.007 | [6] -0.069 | [7] -0.008 | [8] 0.034 | [9] -0.089 | [10] -0.002

KARS1 (UniProt Q15046)
inactive: [1] 0.135 | [2] 0.137 | [3] -0.054 | [4] -0.204 | [5] 0.012 | [6] 0.107 | [7] -0.049 | [8] -0.09 | [9] 0.144 | [10] 0.33

KIDINS220 (UniProt Q9ULH0)
inactive: [1] 0.046 | [2] 0.024 | [3] 0.002 | [4] 0 | [5] 0.007 | [6] -0.031 | [7] -0.028 | [8] -0.008 | [9] -0.025 | [10] 0.115

KPNA2 (UniProt P52292)
inactive: [1] 0.133 | [2] -0.038 | [3] 0.067 | [4] -0.235 | [5] -0.041 | [6] -0.101 | [7] 0.005 | [8] -0.059 | [9] 0.351 | [10] 0.049

— the supplement of paper PMC10849652
